Measured values: PubChem BioAssay AID192 (DTP/NCI, 2004)
The list shows only some results of the screen, not a fair sample: it gathers tests that were run many times, whatever their T/C, doses with no T/C, and many T/C values between a quarter and a half above the control. Other doses and runs of a compound stand elsewhere. T/C gives the treated animals as a percentage of the vehicle group. Some entries give survivors of the animals treated and no T/C: the source files T/C as zero there, which appears to mark a toxic dose or a test without result, not a measured value. Some survivor counts are full or nearly so, which does not show that the dose was tolerated: the source hardly ever lists a survival T/C far under the control, and the zero likely stands for such cases as well. Survivors were counted at the toxicity check, usually on the fifth day, unless a day is given; later deaths do not show. Schedules are NCI's codes, read here as Q, the interval in days (D) or hours (H), X, the number of doses. Some entries were tested several times; their values stand side by side, smallest first. For survival time, this PubChem deposit counts one and a half times the control or more as active, and values a quarter to a half above the control carry no call in these data; other NCI protocols may use other cut-offs. Some T/C values are followed by the survivors on the day toxicity was checked, most often the fifth; without a count, all were alive then.

Tested on: BDF1 mice, B16 melanoma ip, median survival T/C
Experiment: NCI In Vivo Anticancer Drug Screen. Data for tumor model B16 Melanoma (intraperitoneal) in B6D2F1 (BDF1) mice
Details: T/C endpoint: median survival time, higher T/C = longer survival
Outline: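 Mice with transplantable tumors; drug vs vehicle groups; endpoint survival or tumor size; value = T/C.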

[1] = dose: 150.0 mg/kg/injection, schedule: Q01DX009 (ip), vehicle: saline with Tween-80
[2] = dose: 300.0 mg/kg/injection, schedule: Q01DX009 (ip), vehicle: saline with Tween-80
[3] = dose: 50.0 mg/kg/injection, schedule: Q01DX009 (ip), vehicle: saline
[4] = dose: 50.0 mg/kg/injection, schedule: Q04DX003 (ip), vehicle: saline with Tween-80

Structure (SMILES): CCCCCCCCCCCCCC(=O)CC
- survivor count (dose: 37.5 mg/kg/injection, schedule: Q01DX009 (ip), vehicle: saline with Tween-80): 9 of 10
- survivor count (dose: 75.0 mg/kg/injection, schedule: Q01DX009 (ip), vehicle: saline with Tween-80): 9 of 10 and 10 of 10
- survivor count [1]: 10 of 10
- survivor count [2]: 7 of 10

Structure (SMILES): Nc1nc(=S)c2ncn(C3OC(CO)C(O)C3O)c2[nH]1 (stereo not drawn)
- survivor count (dose: 4.0 mg/kg/injection, schedule: Q01DX009 (ip), vehicle: saline sonified): 6 of 6
- T/C (dose: 4.0 mg/kg/injection, schedule: Q01DX009 (ip), vehicle: saline with Tween-80): 129 % of control
- survivor count (dose: 8.0 mg/kg/injection, schedule: Q01DX009 (ip), vehicle: saline sonified): 6 of 6
- survivor count (dose: 8.0 mg/kg/injection, schedule: Q01DX009 (ip), vehicle: saline with Tween-80): 6 of 6

Structure (SMILES): O=C(Nc1ccc([N+](=O)[O-])cc1)Nc1nccs1
- T/C (dose: 12.5 mg/kg/injection, schedule: Q01DX009 (ip), vehicle: distilled water + Tween-80): 128 % of control [9 of 10 alive]
- T/C (dose: 25.0 mg/kg/injection, schedule: Q01DX009 (ip), vehicle: distilled water + Tween-80): 144 % of control
- survivor count (dose: 100.0 mg/kg/injection, schedule: Q01DX009 (ip), vehicle: distilled water + Tween-80): 10 of 10
- survivor count (dose: 200.0 mg/kg/injection, schedule: Q01DX009 (ip), vehicle: distilled water + Tween-80): 4 of 10

Structure (SMILES): CNC(C)C1(O)Cc2c(O)c3c(c(O)c2C(OC2CC(N)C(O)C(C)O2)C1)C(=O)c1c(OC)cccc1C3=O (stereo not drawn)
- T/C (dose: 2.0 mg/kg/injection, schedule: Q01DX009 (ip), vehicle: water): 140 % of control

Structure (SMILES): COC1N(C2CC(O)C(CO)O2)C(=O)NC(=O)C1(F)Br (stereo not drawn)
- survivor count (dose: 40.0 mg/kg/injection, schedule: Q01DX009 (ip), vehicle: saline with Tween-80): 6 of 6
- survivor count [3]: 10 of 10

Structure (SMILES): COc1c2c([n+](C)c3c(OC)cccc13)OC(C(C)C)C2 (stereo not drawn)
- survivor count (dose: 2.0 mg/kg/injection, schedule: Q01DX009 (ip), vehicle: saline sonified): 6 of 6
- survivor count (dose: 3.0 mg/kg/injection, schedule: Q01DX009 (ip), vehicle: saline): 2 of 10
- survivor count (dose: 6.0 mg/kg/injection, schedule: Q04DX003 (ip), vehicle: saline): 0 of 10

Structure (SMILES): COC(=O)c1n[nH]c(C(C)C)c1N=NN(C)C
- survivor count [1]: 10 of 10
- survivor count [2]: 6 of 10

Structure (SMILES): CNc1n[n+](-c2ccccc2)no1
- survivor count [3]: 8 of 10

Structure (SMILES): C[NH-].C[NH-].[Cl][Pt+2][Cl]
- T/C (dose: 0.78 mg/kg/injection, schedule: Q01DX009 (ip), vehicle: saline): 136 % of control
- T/C (dose: 1.56 mg/kg/injection, schedule: Q01DX009 (ip), vehicle: saline): 136 % of control
- survivor count (dose: 3.12 mg/kg/injection, schedule: Q01DX009 (ip), vehicle: saline): 10 of 10
- T/C (dose: 3.13 mg/kg/injection, schedule: Q01DX009 (ip), vehicle: saline with Tween-80): 144 % of control
- T/C (dose: 5.0 mg/kg/injection, schedule: Q01DX009 (ip), vehicle: saline with Tween-80): 136 % of control
- survivor count (dose: 6.25 mg/kg/injection, schedule: Q01DX009 (ip), vehicle: saline with Tween-80): 10 of 10
- survivor count (dose: 6.25 mg/kg/injection, schedule: Q01DX009 (ip), vehicle: saline): 10 of 10
- survivor count (dose: 12.0 mg/kg/injection, schedule: Q01DX009 (ip), vehicle: saline with Tween-80): 9 of 10
- survivor count (dose: 12.5 mg/kg/injection, schedule: Q01DX009 (ip), vehicle: saline with Tween-80): 10 of 10
- T/C (dose: 12.5 mg/kg/injection, schedule: Q04DX003 (ip), vehicle: saline with Tween-80): 145 % of control
- survivor count (dose: 18.0 mg/kg/injection, schedule: Q01DX009 (ip), vehicle: saline with Tween-80): 7 of 10
- survivor count (dose: 25.0 mg/kg/injection, schedule: Q01DX009 (ip), vehicle: saline with Tween-80): 5 of 10
- survivor count (dose: 25.0 mg/kg/injection, schedule: Q04DX003 (ip), vehicle: saline with Tween-80): 8 of 10
- survivor count [4]: 0 of 10
- survivor count (dose: 100.0 mg/kg/injection, schedule: Q04DX003 (ip), vehicle: saline with Tween-80): 0 of 10
- survivor count (dose: 200.0 mg/kg/injection, schedule: Q04DX003 (ip), vehicle: saline with Tween-80): 0 of 10
- survivor count (dose: 400.0 mg/kg/injection, schedule: Q04DX003 (ip), vehicle: saline with Tween-80): 0 of 10

Structure (SMILES): O=Nc1ccc2cc(O)ccc2c1O
- survivor count (dose: 3.12 mg/kg/injection, schedule: Q01DX009 (ip), vehicle: Klucel (hydroxypropylcellulose) (HPC)): 10 of 10
- survivor count (dose: 18.0 mg/kg/injection, schedule: Q01DX009 (ip), vehicle: Klucel (hydroxypropylcellulose) (HPC)): 9 of 10
- survivor count (dose: 28.0 mg/kg/injection, schedule: Q01DX009 (ip), vehicle: Klucel (hydroxypropylcellulose) (HPC)): 10 of 10
- survivor count (dose: 40.0 mg/kg/injection, schedule: Q01DX009 (ip), vehicle: Klucel (hydroxypropylcellulose) (HPC)): 1 of 10

Structure (SMILES): NC(=O)Cn1cnc2c(=S)nc[nH]c21
- survivor count [4]: 1 of 10
